Laboratory results taken from patent US20260256792A1, “TREATMENT OF CHRONIC SPONTANEOUS URTICARIA BY ADMINISTERING (R)-2-[3-[4-AMINO-3-(2-FLUORO-4-PHENOXY-PHENYL)PYRAZOLO[3,4-D]PYRIMIDIN-1-YL]PIPERIDINE-1-CARBONYL]-4-METHYL-4-[4-(OXETAN-3-YL)PIPERAZIN-1-YL]PENT-2-ENENITRILE” (priority 2023, published 2026).
This continues a long series; more values of the same kind are listed elsewhere.

Tested on: moderate-to-severe chronic spontaneous urticaria (CSU)
Assay: Phase 2 CSU study: itch severity score over 7 days (ISS7)
Format: in vivo, human
Conditions: Omalizumab-Naïve
Text: The study comprises a 12 week, randomized, double-blind, placebo-controlled, multi-center, dose-ranging efficacy and safety phase, followed by a 40 week open label extension (OLE) phase (see FIG. 1). The study consists of three phases and an optional OLE phase. […] Clinically, CSU is characterized by the spontaneous and recurrent appearance of pruritic hives. The proposed primary endpoints were the UAS7 at Week 12 in EU and EU reference countries and the ISS7 in the US. Regardless of where a participant was from, all assessments were the same. The UAS7 score is a composite score containing both the HSS7 and the ISS7. This allowed a global assessment of the two key components of urticaria: hives and itch. […] The UAS is a validated PRO measure. […] The daily UAS scores range from 0 to 6 point/day. […] Patients were to complete the UAS using the e-diary. […] The following secondary endpoints were to be analyzed using the same approach as for the primary endpoint: • Change from baseline in UAS7 at Week 4 • Change from baseline in UAS7 at Week 12 (for US and US reference countries) • Change from baseline in ISS7 at Week 12 (except US and US reference countries) • Change from baseline in HSS7 at Week 12

## CC(C)(C=C(C#N)C(=O)N1CCC[C@@H](n2nc(-c3ccc(Oc4ccccc4)cc3F)c3c(N)ncnc32)C1)N1CCN(C2COC2)CC1 [rilzabrutinib, (R)-2-[3-[4-amino-3-(2-fluoro-4-phenoxy-phenyl)pyrazolo[3,4-d]pyrimidin-1-yl]piperidine-1-carbonyl]-4-methyl-4-[4-(oxetan-3-yl)piperazin-1-yl]pent-2-enenitrile]
400 mg BID, Week 6
  ISS7 Change difference for rilzabrutinib vs. placebo LS Mean (95% CI): −1.76
  ISS7 Change from baseline LS Mean (SE): −6.57 (0.97)
400 mg BID, Week 7
  ISS7 % Change difference for rilzabrutinib vs. placebo LS Mean (95% CI): −17.04 (−33.33, −0.75) %
  ISS7 % Change from baseline LS Mean (SE): −46.77 (6.08) %
  ISS7 Change difference for rilzabrutinib vs. placebo LS Mean (95% CI): −2.36
  ISS7 Change from baseline LS Mean (SE): −7.47 (0.94)
400 mg BID, Week 8
  ISS7 % Change difference for rilzabrutinib vs. placebo LS Mean (95% CI): −20.68 (−37.61, −3.74) %
  ISS7 % Change from baseline LS Mean (SE): −52.58 (6.34) %
  ISS7 Change difference for rilzabrutinib vs. placebo LS Mean (95% CI): −2.79
  ISS7 Change from baseline LS Mean (SE): −8.20 (0.98)
400 mg BID, Week 9
  ISS7 % Change difference for rilzabrutinib vs. placebo LS Mean (95% CI): −22.21 (−38.97, −5.44) %
  ISS7 % Change from baseline LS Mean (SE): −51.70 (6.32) %
  ISS7 Change difference for rilzabrutinib vs. placebo LS Mean (95% CI): −2.94
  ISS7 Change from baseline LS Mean (SE): −7.96 (0.99)
400 mg BID, Week 10
  ISS7 % Change difference for rilzabrutinib vs. placebo LS Mean (95% CI): −13.81 (−31.52, 3.91) %
  ISS7 % Change from baseline LS Mean (SE): −48.38 (6.69) %
  ISS7 Change difference for rilzabrutinib vs. placebo LS Mean (95% CI): −2.09
400 mg BID, Week 11
  ISS7 % Change difference for rilzabrutinib vs. placebo LS Mean (95% CI): −17.86 (−35.62, −0.09) %
  ISS7 % Change from baseline LS Mean (SE): −49.16 (6.63) %
  ISS7 Change difference for rilzabrutinib vs. placebo LS Mean (95% CI): −2.43
  ISS7 Change from baseline LS Mean (SE): −7.75 (1.02)
400 mg QPM, Week 5
  ISS7 % Change difference for rilzabrutinib vs. placebo LS Mean (95% CI): 2.23 (−13.08, 17.55) %
  ISS7 % Change from baseline LS Mean (SE): −31.89 (5.56) %
  ISS7 Change difference for rilzabrutinib vs. placebo LS Mean (95% CI): 0.33
  ISS7 Change from baseline LS Mean (SE): −5.30 (0.88)
400 mg QPM, Week 6
  ISS7 % Change difference for rilzabrutinib vs. placebo LS Mean (95% CI): −8.63 (−25.16, 7.90) %
  ISS7 % Change from baseline LS Mean (SE): −36.29 (6.07) %
  ISS7 Change difference for rilzabrutinib vs. placebo LS Mean (95% CI): −1.21
  ISS7 Change from baseline LS Mean (SE): −6.02 (0.95)
400 mg QPM, Week 7
  ISS7 % Change difference for rilzabrutinib vs. placebo LS Mean (95% CI): −8.51 (−24.78, 7.77) %
  ISS7 % Change from baseline LS Mean (SE): −38.23 (5.98) %
  ISS7 Change difference for rilzabrutinib vs. placebo LS Mean (95% CI): −1.06
  ISS7 Change from baseline LS Mean (SE): −6.16 (0.93)
400 mg QPM, Week 8
  ISS7 % Change difference for rilzabrutinib vs. placebo LS Mean (95% CI): −5.64 (−22.51, 11.23) %
  ISS7 % Change from baseline LS Mean (SE): −37.54 (6.29) %
  ISS7 Change difference for rilzabrutinib vs. placebo LS Mean (95% CI): −0.55
  ISS7 Change from baseline LS Mean (SE): −5.96 (0.96)
400 mg QPM, Week 9
  ISS7 % Change from baseline LS Mean (SE): −37.27 (6.13) %
  ISS7 Change difference for rilzabrutinib vs. placebo LS Mean (95% CI): −1.08
  ISS7 Change from baseline LS Mean (SE): −6.10 (0.96)
400 mg QPM, Week 10
  ISS7 % Change difference for rilzabrutinib vs. placebo LS Mean (95% CI): −4.17 (−21.94, 13.59) %
  ISS7 % Change from baseline LS Mean (SE): −38.74 (6.43) %
  ISS7 Change difference for rilzabrutinib vs. placebo LS Mean (95% CI): −0.58
  ISS7 Change from baseline LS Mean (SE): −6.26 (1.01)
400 mg QPM, Week 11
  ISS7 % Change difference for rilzabrutinib vs. placebo LS Mean (95% CI): −4.87 (−22.51, 12.77) %
  ISS7 % Change from baseline LS Mean (SE): −36.17 (6.53) %
  ISS7 Change difference for rilzabrutinib vs. placebo LS Mean (95% CI): −0.42
  ISS7 Change from baseline LS Mean (SE): −5.73 (1.00)
400 mg TID, Week 5
  ISS7 % Change difference for rilzabrutinib vs. placebo LS Mean (95% CI): −19.52 (−35.10, −3.93) %
  ISS7 % Change from baseline LS Mean (SE): −53.64 (5.75) %
  ISS7 Change difference for rilzabrutinib vs. placebo LS Mean (95% CI): −2.88
  ISS7 Change from baseline LS Mean (SE): −8.51 (0.91)
400 mg TID, Week 6
  ISS7 % Change difference for rilzabrutinib vs. placebo LS Mean (95% CI): −24.70 (−41.62, −7.79) %
  ISS7 % Change from baseline LS Mean (SE): −52.36 (6.28) %
  ISS7 Change difference for rilzabrutinib vs. placebo LS Mean (95% CI): −3.47
  ISS7 Change from baseline LS Mean (SE): −8.27 (0.99)
400 mg TID, Week 7
  ISS7 % Change difference for rilzabrutinib vs. placebo LS Mean (95% CI): −24.69 (−41.39, −7.99) %
  ISS7 % Change from baseline LS Mean (SE): −54.42 (6.29) %
  ISS7 Change difference for rilzabrutinib vs. placebo LS Mean (95% CI): −3.43
  ISS7 Change from baseline LS Mean (SE): −8.54 (0.97)
400 mg TID, Week 8
  ISS7 % Change difference for rilzabrutinib vs. placebo LS Mean (95% CI): −19.18 (−36.57, −1.80) %
  ISS7 % Change from baseline LS Mean (SE): −51.09 (6.57) %
  ISS7 Change difference for rilzabrutinib vs. placebo LS Mean (95% CI): −2.52
  ISS7 Change from baseline LS Mean (SE): −7.93 (1.03)
400 mg TID, Week 9
  ISS7 % Change difference for rilzabrutinib vs. placebo LS Mean (95% CI): −24.44 (−41.44, −7.44) %
  ISS7 % Change from baseline LS Mean (SE): −53.94 (6.32) %
  ISS7 Change difference for rilzabrutinib vs. placebo LS Mean (95% CI): −3.43
  ISS7 Change from baseline LS Mean (SE): −8.45 (1.00)
400 mg TID, Week 10
  ISS7 % Change difference for rilzabrutinib vs. placebo LS Mean (95% CI): −20.32 (−38.47, −2.16) %
  ISS7 % Change from baseline LS Mean (SE): −54.88 (6.72) %
  ISS7 Change difference for rilzabrutinib vs. placebo LS Mean (95% CI): −2.91
  ISS7 Change from baseline LS Mean (SE): −8.59 (1.03)
400 mg TID, Week 11
  ISS7 % Change difference for rilzabrutinib vs. placebo LS Mean (95% CI): −22.62 (−40.61, −4.64) %
  ISS7 % Change from baseline LS Mean (SE): −53.92 (6.66) %
  ISS7 Change difference for rilzabrutinib vs. placebo LS Mean (95% CI): −3.19
  ISS7 Change from baseline LS Mean (SE): −8.50 (1.02)
400 mg TID, Week 12
  ISS7 % Change difference for rilzabrutinib vs. placebo LS Mean (95% CI): −23.84 (−41.97, −5.71) %
  ISS7 % Change from baseline LS Mean (SE): −58.05 (6.73) %
  ISS7 Change difference for rilzabrutinib vs. placebo LS Mean (95% CI): −3.44
